Values quoted from earlier work as cited in patent publication US9301963B2, “Treatment tool and method of gradual withdrawal from bezodiazepine dependency” (priority 2011, dated 2016).

System: CYP 450 enzymes
Settings: cited from earlier work

Structure (SMILES)	metabolites	metabolism by CYP 450 enzyme pathways
CN1C(=O)CN=C(c2ccccc2)c2cc(Cl)ccc21 [Diazepam]	one inactive metabolite and two active metabolites	–
CN1C(=O)C(O)N=C(c2ccccc2)c2cc(Cl)ccc21 (centres unmarked) [Temazepam]	–	not metabolized by the CYP 450 enzyme pathways
